Experiment [1] has as its target AR-N (N-terminal of AR) (human). The experiment can be described thus: GST pull-down, GST-TR4 on beads.
For experiment [2], the target named is AR-L (LBD of AR) (human). As to the kind of experiment: GST pull-down, GST-TR4 on beads.
For experiment [3], the target named is AR-D (DBD of AR) (human). As to the kind of experiment: GST pull-down, GST-TR4 on beads.
For experiment [4], the target named is TR2 orphan receptor (TR2), full-length (human). As to the kind of experiment: GST pull-down, GST-TR4 on glutathione-Sepharose beads, in vitro translated 35S-labeled protein.
Experiment [5] deals with AR-N (N-terminal of AR) (human). The experiment can be described thus: Table 4, summary of interactions tested; assay not given.
In experiment [6] the target is AR-L (LBD of AR) (human). The experiment is described as above.
The target of experiment [7] is AR-D (DBD of AR) (human). Described as above.
For experiment [8], the target named is androgen receptor (AR), full-length (human). The experiment is described as above.

No constants are given. Whether binding was seen depends on the method and setting. Binding calls can cover weak binding; strength is not graded here. For some assays here: In cells and extracts the contact can be indirect. For some assays here: Where a sequence is shown, tags or fusion partners need not be part of it.

B1: GST-TR4 fusion protein (protein, not shown: a dimerising Fc or GST; small tags and cut ends)
chain: MTSPSPRIQIISTDSAVASPQRIQGSEPASGPLSVFTSLNKEKIVTDQQTGQKIQIVTAVDASGSPKQQFILTSPDGAGTGKVILASPETSSAKQLIFTTSDNLVPGRIQIVTDSASVERLLGKTDVQRPQVVEYCVVCGDKASGRHYGAVSCEGCKGFFKRSVRKNLTYSCRSSQDCIINKHHRNRCQFCRLKKCLEMGMKMESVQSERKPFDVQREKPSNCAASTEKIYIRKDLRSPLIATPTFVADKDGARQTGLLDPGMLVNIQQPLIREDGTVLLATDSKAETSQGALGTLANVVTSLANLSESLNNGDTSEIQPEDQSASEITRAFDTLAKALNTTDSSSSPSLADGIDTSGGGSIHVISRDQSTPIIEVEGPLLSDTHVTFKLTMPSPMPEYLNVHYICESASRLLFLSMHRARSIPAFQGLGQDCNTSLVRACWNELFTLGLAQCAQVMSLSTILAAIVNHLQNSIQEDKLSGDRIKQVMEHIWKLQEFCNSMANWDIDGYEYAYLKAIVLFSPDHPGLTSTSQIEKFQEKAQMELQDYVQKTYSEDTYRLARILVRLPALRLMSSNITEELFFTGLIGNVSIDSIIPYILKMETAEYNGQITGVSL
B1: the binding result (in experiment [1]; in the experiment with AR-L (LBD of AR) (human) [2]; with AR-D (DBD of AR) (human) [3]; in experiment [4]) was “binds” throughout.

B2: TR4 orphan receptor (TR4), full-length (receptor)
chain: MTSPSPRIQIISTDSAVASPQRIQGSEPASGPLSVFTSLNKEKIVTDQQTGQKIQIVTAVDASGSPKQQFILTSPDGAGTGKVILASPETSSAKQLIFTTSDNLVPGRIQIVTDSASVERLLGKTDVQRPQVVEYCVVCGDKASGRHYGAVSCEGCKGFFKRSVRKNLTYSCRSSQDCIINKHHRNRCQFCRLKKCLEMGMKMESVQSERKPFDVQREKPSNCAASTEKIYIRKDLRSPLIATPTFVADKDGARQTGLLDPGMLVNIQQPLIREDGTVLLATDSKAETSQGALGTLANVVTSLANLSESLNNGDTSEIQPEDQSASEITRAFDTLAKALNTTDSSSSPSLADGIDTSGGGSIHVISRDQSTPIIEVEGPLLSDTHVTFKLTMPSPMPEYLNVHYICESASRLLFLSMHRARSIPAFQGLGQDCNTSLVRACWNELFTLGLAQCAQVMSLSTILAAIVNHLQNSIQEDKLSGDRIKQVMEHIWKLQEFCNSMANWDIDGYEYAYLKAIVLFSPDHPGLTSTSQIEKFQEKAQMELQDYVQKTYSEDTYRLARILVRLPALRLMSSNITEELFFTGLIGNVSIDSIIPYILKMETAEYNGQITGVSL
For B2, the binding entry (in experiment [5]; with AR-L (LBD of AR) (human) [6]; in the experiment with AR-D (DBD of AR) (human) [7]) was “binds” each time.

B3: TR4 LBD (row label of Table 4) (receptor)
chain: AASTEKIYIRKDLRSPLIATPTFVADKDGARQTGLLDPGMLVNIQQPLIREDGTVLLATDSKAETSQGALGTLANVVTSLANLSESLNNGDTSEIQPEDQSASEITRAFDTLAKALNTTDSSSSPSLADGIDTSGGGSIHVISRDQSTPIIEVEGPLLSDTHVTFKLTMPSPMPEYLNVHYICESASRLLFLSMHRARSIPAFQGLGQDCNTSLVRACWNELFTLGLAQCAQVMSLSTILAAIVNHLQNSIQEDKLSGDRIKQVMEHIWKLQEFCNSMANWDIDGYEYAYLKAIVLFSPDHPGLTSTSQIEKFQEKAQMELQDYVQKTYSEDTYRLARILVRLPALRLMSSNITEELFFTGLIGNVSIDSIIPYILKMETAEYNGQITGVSL
notes: not shown: Fusion partner: GST in the pull-down with ER, GAL4-DBD in the hybrid assays with AR
For the molecule B3, the binding result in experiment [8] is “binds”.

Source of the values: patent US20030235860A1, “Interactions between AR, ER, TR2, and TR4” (priority 1999, published 2003).
